Data from PubChem BioAssay AID260 (DTP/NCI, 2004).
The list shows only some results of the screen, not a fair sample: it gathers tests that were run many times, whatever their T/C, doses with no T/C, and many T/C values between a quarter and a half above the control. Other doses and runs of a compound stand elsewhere. T/C is the treated group as % of the vehicle group. Some entries give survivors of the animals treated and no T/C: the source files T/C as zero there, which appears to mark a toxic dose or a test without result, not a measured value. Some survivor counts are full or nearly so, which does not show that the dose was tolerated: survival well below the control is almost never listed, so the zero probably covers shortened survival too. Survivors were counted at the toxicity check, usually on the fifth day, unless a day is given; later deaths do not show. Schedule codes are those of the source, taken here to give the interval after Q, in days (D) or hours (H), and the number of doses after X. Some entries hold several experiments; the results are listed from low to high. Where survival is the endpoint, this PubChem deposit counts one and a half times the control or more as active, and values a quarter to a half above the control carry no call in these data; other NCI protocols may use other cut-offs. Some T/C values carry the count of animals alive at the toxicity check (mostly the fifth day); where none is given, no animal had died by that day.

System: CD2F1 mice, intracerebral L1210 leukemia, survival T/C
Assay: NCI In Vivo Anticancer Drug Screen. Data for tumor model L1210 Leukemia (intracerebral) in CD2F1 (CDF1) mice
Details: higher T/C = longer survival
Method: The antitumor activity of compounds was measured in mice bearing transplantable tumors. Survival or tumor size were measured and the results are expressed as the measurement made in the treated group (T) divided by the measurement made in the vehicle treated control group (C). The tumor model used in this assay is L1210 Leukemia (intracerebral) in CD2F1 (CDF1) mice

[1] = T/C endpoint: median survival time, dose: 256.0 mg/kg/injection, schedule: Q01DX005 (ip), vehicle: saline with Tween-80
[2] = T/C endpoint: median survival time, dose: 25.0 mg/kg/injection, schedule: Q01DX009 (ip), vehicle: saline
[3] = T/C endpoint: mean survival time, dose: 16.0 mg/kg/injection, schedule: Q01DX009 (ip), vehicle: saline

CN(C)N=Nc1ccc([N+](=O)[O-])cc1C(N)=O
survivor count [1]: 3 of 6
survivor count (T/C endpoint: median survival time, dose: 512.0 mg/kg/injection, schedule: Q01DX005 (ip), vehicle: saline with Tween-80): 0 of 6

O=c1[nH]cc(F)c(=O)[nH]1
T/C (T/C endpoint: mean survival time, dose: 25.0 mg/kg/injection, schedule: Q01DX009 (ip), vehicle: saline): 139 % of control
T/C (T/C endpoint: mean survival time, dose: 30.0 mg/kg/injection, schedule: Q01DX009 (ip), vehicle: saline): 138 % of control

CC[C@H]1CN2CCc3cc(OC)c(OC)cc3[C@@H]2C[C@@H]1C[C@H]1NCCc2cc(OC)c(OC)cc21
T/C (T/C endpoint: median survival time, dose: 2.0 mg/kg/injection, schedule: Q01DX005 (ip), vehicle: Klucel (hydroxypropylcellulose) (HPC)): 132 % of control [9 of 10 alive]
T/C (T/C endpoint: median survival time, dose: 4.0 mg/kg/injection, schedule: Q01DX005 (ip), vehicle: Klucel (hydroxypropylcellulose) (HPC)): 136 % of control
T/C (T/C endpoint: median survival time, dose: 8.0 mg/kg/injection, schedule: Q01DX005 (ip), vehicle: Klucel (hydroxypropylcellulose) (HPC)): 130 % of control
survivor count (T/C endpoint: median survival time, dose: 16.0 mg/kg/injection, schedule: Q01DX005 (ip), vehicle: Klucel (hydroxypropylcellulose) (HPC)): 6 of 10 and 8 of 10

O=C1c2ccccc2C(=O)c2c(NCCNCCO)ccc(NCCNCCO)c21
T/C (T/C endpoint: median survival time, dose: 8.0 mg/kg/injection, schedule: Q01DX009 (ip), vehicle: saline with Tween-80): 130 % of control
T/C (T/C endpoint: median survival time, dose: 16.0 mg/kg/injection, schedule: Q01DX009 (ip), vehicle: saline with Tween-80): 127 % of control
T/C (T/C endpoint: median survival time, dose: 32.0 mg/kg/injection, schedule: Q01DX009 (ip), vehicle: saline): 146 % of control
survivor count (T/C endpoint: median survival time, dose: 64.0 mg/kg/injection, schedule: Q01DX009 (ip), vehicle: saline with Tween-80): 5 of 6

C[C@H](CN1CC(=O)NC(=O)C1)N1CC(=O)NC(=O)C1
T/C (T/C endpoint: mean survival time, dose: 16.0 mg/kg/injection, schedule: Q01DX009 (ip), vehicle: water): 130 % of control
T/C (T/C endpoint: mean survival time, dose: 32.0 mg/kg/injection, schedule: Q01DX009 (ip), vehicle: water): 147 % of control

CN(C)N=Nc1ccccc1
T/C (T/C endpoint: mean survival time, dose: 25.0 mg/kg/injection, schedule: Q01DX009 (ip), vehicle: Klucel (hydroxypropylcellulose) (HPC)): 127 and 147 % of control
survivor count (T/C endpoint: mean survival time, dose: 100.0 mg/kg/injection, schedule: Q01DX009 (ip), vehicle: Klucel (hydroxypropylcellulose) (HPC)): 0 of 6, 1 of 6, 2 of 6
survivor count (T/C endpoint: mean survival time, dose: 200.0 mg/kg/injection, schedule: Q01DX009 (ip), vehicle: Klucel (hydroxypropylcellulose) (HPC)): 0 of 6

O=NN(CCCl)C(=O)NC1C(O)C(O)C(O)C(O)C1O (centres undefined)
T/C (T/C endpoint: mean survival time, dose: 20.0 mg/kg/injection, schedule: Q01DX001 (ip), vehicle: saline): 125 % of control
T/C (T/C endpoint: mean survival time, dose: 30.0 mg/kg/injection, schedule: Q01DX001 (ip), vehicle: saline): 147 % of control
survivor count (T/C endpoint: mean survival time, dose: 100.0 mg/kg/injection, schedule: Q01DX001 (ip), vehicle: saline): 10 of 10
survivor count (T/C endpoint: mean survival time, dose: 150.0 mg/kg/injection, schedule: Q01DX001 (ip), vehicle: saline): 7 of 10

CC1CCC(NC(=O)N(CCCl)N=O)CC1 (centres undefined)
T/C (T/C endpoint: median survival time, dose: 8.0 mg/kg/injection, schedule: Q01DX001 (ip), vehicle: other): 134 % of control
T/C (T/C endpoint: median survival time, dose: 25.0 mg/kg/injection, schedule: Q01DX001 (ip), vehicle: DMSO): 126 % of control
T/C (T/C endpoint: median survival time, dose: 50.0 mg/kg/injection, schedule: Q01DX001 (oral), vehicle: saline + alcohol): 134 % of control
survivor count (T/C endpoint: median survival time, dose: 128.0 mg/kg/injection, schedule: Q01DX001 (ip), vehicle: other): 2 of 6
survivor count (T/C endpoint: median survival time, dose: 200.0 mg/kg/injection, schedule: Q01DX001 (ip), vehicle: saline + alcohol): 2 of 6

O=P1(NCCCl)OCCCN1CCCl (centres undefined)
T/C (T/C endpoint: mean survival time, dose: 100.0 mg/kg/injection, schedule: Q01DX001 (ip), vehicle: water): 129 % of control
T/C (T/C endpoint: mean survival time, dose: 200.0 mg/kg/injection, schedule: Q01DX001 (ip), vehicle: water): 137 % of control
T/C (T/C endpoint: mean survival time, dose: 400.0 mg/kg/injection, schedule: Q01DX001 (ip), vehicle: water): 148 % of control [7 of 8 alive]
survivor count (T/C endpoint: mean survival time, dose: 800.0 mg/kg/injection, schedule: Q01DX001 (ip), vehicle: water): 0 of 8
survivor count (T/C endpoint: median survival time, dose: 640.0 mg/kg/injection, schedule: Q01DX001 (ip), vehicle: saline): 6 of 10

CN(Cc1cnc2nc(N[Si](C)(C)C)nc(N[Si](C)(C)C)c2n1)c1ccc(C(=O)NC(CCC(=O)O[Si](C)(C)C)C(=O)O[Si](C)(C)C)cc1 (centres undefined)
T/C (T/C endpoint: median survival time, dose: 7.5 mg/kg/injection, schedule: Q04DX003 (ip), vehicle: saline): 128 % of control
T/C (T/C endpoint: median survival time, dose: 15.0 mg/kg/injection, schedule: Q04DX003 (ip), vehicle: saline): 135 % of control
T/C (T/C endpoint: median survival time, dose: 120.0 mg/kg/injection, schedule: Q04DX003 (ip), vehicle: saline): 142 % of control

Nc1nc(=S)c2ncn(C3CC(O)C(CO)O3)c2[nH]1 (centres undefined)
T/C (T/C endpoint: mean survival time, dose: 5.0 mg/kg/injection, schedule: Q01DX001 (ip), vehicle: steroid suspending solution): 128 % of control

CN(C)N=Nc1ccccc1C(=O)O
survivor count (T/C endpoint: mean survival time, dose: 60.0 mg/kg/injection, schedule: Q01DX007 (ip), vehicle: other): 1 of 6

CC1(C)N=C(N)N=C(N)N1c1ccc(OCc2ccc(C(=O)Nc3cccc(S(=O)(=O)F)c3)cc2)c(Cl)c1
survivor count (T/C endpoint: mean survival time, dose: 200.0 mg/kg/injection, schedule: Q04DX003 (ip), vehicle: saline): 2 of 6
survivor count (T/C endpoint: mean survival time, dose: 400.0 mg/kg/injection, schedule: Q04DX003 (ip), vehicle: saline): 1 of 6

CS(=O)(=O)CS(=O)(=O)OCCCl
T/C [2]: 137 % of control

CN(Cc1cnc2nc(N)nc(N)c2n1)c1ccc(C(=O)N[C@@H](CCC(=O)O)C(=O)O)cc1
T/C (T/C endpoint: median survival time, dose: 4.6 mg/kg/injection, schedule: Q04DX003 (ip), vehicle: saline): 128 % of control
T/C (T/C endpoint: median survival time, dose: 9.2 mg/kg/injection, schedule: Q04DX003 (ip), vehicle: saline): 142 % of control
survivor count (T/C endpoint: median survival time, dose: 73.5 mg/kg/injection, schedule: Q04DX003 (ip), vehicle: saline): 5 of 6

CN(C)/N=N/c1nc[nH]c1C(N)=O
T/C (T/C endpoint: mean survival time, dose: 200.0 mg/kg/injection, schedule: Q01DX009 (ip), vehicle: saline): 130 % of control
T/C [1]: 127 % of control

CC[n+]1c(-c2ccccc2)c2cc(N)ccc2c2ccc(N)cc21
survivor count (T/C endpoint: median survival time, dose: 48.0 mg/kg/injection, schedule: Q01DX005 (ip), vehicle: saline): 9 of 10
survivor count (T/C endpoint: median survival time, dose: 96.0 mg/kg/injection, schedule: Q01DX005 (ip), vehicle: saline): 2 of 10

O=C1C=CN(C2OC(CO)C(O)C2O)C(=O)C1 (centres undefined)
T/C (T/C endpoint: mean survival time, dose: 11.0 mg/kg/injection, schedule: Q01DX009 (ip), vehicle: saline): 135 % of control
T/C [3]: 145 % of control
T/C (T/C endpoint: mean survival time, dose: 22.0 mg/kg/injection, schedule: Q01DX009 (ip), vehicle: saline): 144 % of control
T/C (T/C endpoint: median survival time, dose: 12.5 mg/kg/injection, schedule: Q01DX009 (ip), vehicle: saline): 135 % of control
T/C [2]: 140 % of control
T/C (T/C endpoint: median survival time, dose: 50.0 mg/kg/injection, schedule: Q01DX009 (ip), vehicle: saline): 136 % of control

NC(C/[N+]([O-])=N/O)C(=O)O (centres undefined)
survivor count (T/C endpoint: median survival time, dose: 400.0 mg/kg/injection, schedule: Q01DX009 (ip), vehicle: Klucel (hydroxypropylcellulose) (HPC)): 6 of 6
survivor count (T/C endpoint: median survival time, dose: 450.0 mg/kg/injection, schedule: Q01DX009 (ip), vehicle: saline): 5 of 6
survivor count (T/C endpoint: median survival time, dose: 800.0 mg/kg/injection, schedule: Q01DX009 (ip), vehicle: Klucel (hydroxypropylcellulose) (HPC)): 4 of 6 and 6 of 6
survivor count (T/C endpoint: median survival time, dose: 900.0 mg/kg/injection, schedule: Q01DX009 (ip), vehicle: saline): 5 of 6

CN(C)CCCN1c2ccccc2Sc2ccc(Cl)cc21
T/C (T/C endpoint: median survival time, dose: 75.0 mg/kg/injection, schedule: Q01DX001 (ip), vehicle: water): 130 % of control [2 of 6 alive]

CC1C[C@@H](O)C(NC(=O)N(CCCl)N=O)[C@@H](O)C1 (some centres undefined)
T/C (T/C endpoint: mean survival time, dose: 9.0 mg/kg/injection, schedule: Q01DX001 (ip), vehicle: saline): 141 % of control
survivor count (T/C endpoint: mean survival time, dose: 67.0 mg/kg/injection, schedule: Q01DX001 (ip), vehicle: saline): 7 of 10

CC[n+]1ccc(Nc2ccc(NC(=O)c3ccc(Nc4cc[n+](CC)c5ccc(N)cc45)cc3)cc2)cc1
survivor count (T/C endpoint: mean survival time, dose: 8.0 mg/kg/injection, schedule: Q01DX009 (ip), vehicle: saline): 0 of 7
survivor count [3]: 0 of 7

O=C1C(NCCO)=C(N2CC2)C(=O)C(NCCO)=C1N1CC1
T/C (T/C endpoint: mean survival time, dose: 0.37 mg/kg/injection, schedule: Q01DX009 (ip), vehicle: saline): 128 % of control

COC(=O)c1ccccc1N=NN(C)C
survivor count (T/C endpoint: mean survival time, dose: 20.0 mg/kg/injection, schedule: Q01DX007 (ip), vehicle: other): 6 of 6
survivor count (T/C endpoint: mean survival time, dose: 40.0 mg/kg/injection, schedule: Q01DX007 (ip), vehicle: other): 0 of 6
